The list shows a part of the results.
These targets were tested with CC1Cc2ccccc2N1C(=O)C1CCCN(C1)C(=O)CCl (mixture of isomers) [TRIM25 ligand 11 (diastereomer mixture)] (assay: probe-labelled cysteine peptide fold change vs DMSO (competition) (log2 fold change); higher = less target engagement (more negative = stronger competition)). Conditions: 10 µM; THP-1; incubation time: 4 h.
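Note: competitive chemoproteomic profiling in live THP-1 cells with an iodoacetamide desthiobiotin (IA-DTB) probe, comparing probe-labelled peptide intensities in compound-treated cells against DMSO-treated controls.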

By UniProt entry, the sequences of proteins in these tests, tags left out. Where a name states a change or a piece, a line headed by the entry shows the natural chain unless it says otherwise.
UniProt Q9NXR5: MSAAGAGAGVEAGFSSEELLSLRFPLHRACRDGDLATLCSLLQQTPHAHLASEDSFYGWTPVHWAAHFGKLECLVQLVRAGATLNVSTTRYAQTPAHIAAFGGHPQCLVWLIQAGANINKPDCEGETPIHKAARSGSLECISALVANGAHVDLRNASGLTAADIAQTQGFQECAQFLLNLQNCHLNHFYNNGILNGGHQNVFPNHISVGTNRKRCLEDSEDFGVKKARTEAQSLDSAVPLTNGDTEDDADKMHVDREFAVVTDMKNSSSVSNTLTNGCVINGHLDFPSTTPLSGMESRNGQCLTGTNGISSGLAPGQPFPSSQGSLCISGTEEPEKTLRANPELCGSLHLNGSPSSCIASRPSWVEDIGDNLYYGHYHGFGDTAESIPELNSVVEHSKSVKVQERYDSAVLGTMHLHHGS
UniProt Q06481, whole entry, looked up: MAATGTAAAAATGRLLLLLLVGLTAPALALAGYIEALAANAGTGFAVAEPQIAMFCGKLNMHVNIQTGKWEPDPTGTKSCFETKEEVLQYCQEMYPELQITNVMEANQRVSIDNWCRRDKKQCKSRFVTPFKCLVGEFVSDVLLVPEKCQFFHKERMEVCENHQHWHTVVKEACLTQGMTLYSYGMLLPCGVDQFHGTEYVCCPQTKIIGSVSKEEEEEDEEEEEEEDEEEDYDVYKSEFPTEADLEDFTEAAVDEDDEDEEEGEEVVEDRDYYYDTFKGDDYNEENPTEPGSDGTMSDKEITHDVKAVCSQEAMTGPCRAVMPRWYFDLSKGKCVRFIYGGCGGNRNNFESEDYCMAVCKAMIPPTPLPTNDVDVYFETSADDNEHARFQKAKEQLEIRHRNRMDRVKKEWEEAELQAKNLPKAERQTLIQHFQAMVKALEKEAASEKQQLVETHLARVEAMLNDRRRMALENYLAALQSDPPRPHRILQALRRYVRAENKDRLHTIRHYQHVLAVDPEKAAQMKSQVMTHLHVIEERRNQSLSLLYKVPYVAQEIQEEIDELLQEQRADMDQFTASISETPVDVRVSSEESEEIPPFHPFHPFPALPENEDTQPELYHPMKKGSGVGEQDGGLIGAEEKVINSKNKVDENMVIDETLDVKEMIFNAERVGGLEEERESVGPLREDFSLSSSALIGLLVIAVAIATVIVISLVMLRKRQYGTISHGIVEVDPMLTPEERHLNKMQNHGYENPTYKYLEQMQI
UniProt P27695, whole entry, looked up: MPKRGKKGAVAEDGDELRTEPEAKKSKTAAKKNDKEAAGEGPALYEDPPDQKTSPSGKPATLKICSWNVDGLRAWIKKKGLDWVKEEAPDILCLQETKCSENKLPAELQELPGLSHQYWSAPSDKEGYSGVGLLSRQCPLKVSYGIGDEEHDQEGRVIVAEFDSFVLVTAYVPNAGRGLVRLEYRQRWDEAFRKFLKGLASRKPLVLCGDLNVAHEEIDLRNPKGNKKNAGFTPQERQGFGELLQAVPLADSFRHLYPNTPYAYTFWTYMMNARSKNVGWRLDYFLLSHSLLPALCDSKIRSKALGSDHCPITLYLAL
UniProt O14617: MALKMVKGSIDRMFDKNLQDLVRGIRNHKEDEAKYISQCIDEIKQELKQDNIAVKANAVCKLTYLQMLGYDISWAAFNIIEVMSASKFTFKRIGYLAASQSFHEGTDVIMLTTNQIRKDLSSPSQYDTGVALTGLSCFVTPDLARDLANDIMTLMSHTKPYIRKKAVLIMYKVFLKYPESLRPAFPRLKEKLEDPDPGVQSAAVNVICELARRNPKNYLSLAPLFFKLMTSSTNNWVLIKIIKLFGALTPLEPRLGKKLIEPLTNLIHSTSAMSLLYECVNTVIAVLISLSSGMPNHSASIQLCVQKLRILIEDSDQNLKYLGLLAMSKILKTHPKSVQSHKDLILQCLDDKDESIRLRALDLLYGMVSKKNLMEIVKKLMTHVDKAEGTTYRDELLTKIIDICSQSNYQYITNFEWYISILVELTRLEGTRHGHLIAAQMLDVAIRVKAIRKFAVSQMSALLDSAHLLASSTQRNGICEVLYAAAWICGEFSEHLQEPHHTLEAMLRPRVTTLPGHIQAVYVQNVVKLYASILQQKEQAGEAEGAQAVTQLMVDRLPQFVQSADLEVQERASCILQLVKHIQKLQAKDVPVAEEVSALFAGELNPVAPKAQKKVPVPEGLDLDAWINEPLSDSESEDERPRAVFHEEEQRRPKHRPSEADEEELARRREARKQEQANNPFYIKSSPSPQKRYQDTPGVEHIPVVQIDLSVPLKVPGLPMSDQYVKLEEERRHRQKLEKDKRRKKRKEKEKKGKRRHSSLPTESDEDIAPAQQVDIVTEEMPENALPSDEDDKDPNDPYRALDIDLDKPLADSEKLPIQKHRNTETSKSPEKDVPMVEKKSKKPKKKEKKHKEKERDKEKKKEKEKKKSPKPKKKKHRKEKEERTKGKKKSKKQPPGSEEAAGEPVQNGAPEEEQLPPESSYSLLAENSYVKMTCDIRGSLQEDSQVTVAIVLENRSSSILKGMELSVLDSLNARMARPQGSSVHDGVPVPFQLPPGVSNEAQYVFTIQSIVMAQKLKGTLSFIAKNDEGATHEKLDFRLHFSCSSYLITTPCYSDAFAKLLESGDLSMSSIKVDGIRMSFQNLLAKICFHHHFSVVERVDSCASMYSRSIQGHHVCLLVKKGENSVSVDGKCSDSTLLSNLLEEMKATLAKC
UniProt O00189: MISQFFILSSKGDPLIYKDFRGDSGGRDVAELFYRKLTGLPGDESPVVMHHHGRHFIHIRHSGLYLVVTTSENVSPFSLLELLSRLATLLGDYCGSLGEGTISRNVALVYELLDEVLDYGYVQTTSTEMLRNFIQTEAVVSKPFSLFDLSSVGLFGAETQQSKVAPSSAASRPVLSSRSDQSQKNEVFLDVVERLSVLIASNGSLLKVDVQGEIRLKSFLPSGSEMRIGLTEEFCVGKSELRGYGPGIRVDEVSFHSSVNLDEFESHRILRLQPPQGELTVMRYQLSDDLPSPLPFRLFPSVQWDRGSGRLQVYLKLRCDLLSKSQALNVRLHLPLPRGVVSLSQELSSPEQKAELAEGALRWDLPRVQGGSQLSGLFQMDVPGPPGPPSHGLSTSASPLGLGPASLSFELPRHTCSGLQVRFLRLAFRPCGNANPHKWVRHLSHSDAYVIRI
UniProt P13798: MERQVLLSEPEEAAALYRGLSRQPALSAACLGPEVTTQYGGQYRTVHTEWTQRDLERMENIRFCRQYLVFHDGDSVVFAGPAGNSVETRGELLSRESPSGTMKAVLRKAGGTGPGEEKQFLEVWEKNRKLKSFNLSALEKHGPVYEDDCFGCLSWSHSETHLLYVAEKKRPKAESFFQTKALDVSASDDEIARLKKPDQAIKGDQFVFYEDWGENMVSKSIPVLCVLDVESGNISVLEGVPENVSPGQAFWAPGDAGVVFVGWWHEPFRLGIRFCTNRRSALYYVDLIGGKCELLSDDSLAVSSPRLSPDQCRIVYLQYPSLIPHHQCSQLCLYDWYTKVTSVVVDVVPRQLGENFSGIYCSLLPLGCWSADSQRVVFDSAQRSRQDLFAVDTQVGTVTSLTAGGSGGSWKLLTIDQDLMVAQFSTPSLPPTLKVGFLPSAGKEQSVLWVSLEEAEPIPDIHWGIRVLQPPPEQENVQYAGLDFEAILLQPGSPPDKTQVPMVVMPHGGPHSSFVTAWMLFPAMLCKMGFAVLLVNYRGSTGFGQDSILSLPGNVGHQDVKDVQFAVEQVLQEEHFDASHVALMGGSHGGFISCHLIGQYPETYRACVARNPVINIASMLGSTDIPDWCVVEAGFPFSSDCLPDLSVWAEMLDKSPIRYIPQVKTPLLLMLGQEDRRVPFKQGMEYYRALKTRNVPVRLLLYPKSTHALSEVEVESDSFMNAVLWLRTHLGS
UniProt Q9P2R3: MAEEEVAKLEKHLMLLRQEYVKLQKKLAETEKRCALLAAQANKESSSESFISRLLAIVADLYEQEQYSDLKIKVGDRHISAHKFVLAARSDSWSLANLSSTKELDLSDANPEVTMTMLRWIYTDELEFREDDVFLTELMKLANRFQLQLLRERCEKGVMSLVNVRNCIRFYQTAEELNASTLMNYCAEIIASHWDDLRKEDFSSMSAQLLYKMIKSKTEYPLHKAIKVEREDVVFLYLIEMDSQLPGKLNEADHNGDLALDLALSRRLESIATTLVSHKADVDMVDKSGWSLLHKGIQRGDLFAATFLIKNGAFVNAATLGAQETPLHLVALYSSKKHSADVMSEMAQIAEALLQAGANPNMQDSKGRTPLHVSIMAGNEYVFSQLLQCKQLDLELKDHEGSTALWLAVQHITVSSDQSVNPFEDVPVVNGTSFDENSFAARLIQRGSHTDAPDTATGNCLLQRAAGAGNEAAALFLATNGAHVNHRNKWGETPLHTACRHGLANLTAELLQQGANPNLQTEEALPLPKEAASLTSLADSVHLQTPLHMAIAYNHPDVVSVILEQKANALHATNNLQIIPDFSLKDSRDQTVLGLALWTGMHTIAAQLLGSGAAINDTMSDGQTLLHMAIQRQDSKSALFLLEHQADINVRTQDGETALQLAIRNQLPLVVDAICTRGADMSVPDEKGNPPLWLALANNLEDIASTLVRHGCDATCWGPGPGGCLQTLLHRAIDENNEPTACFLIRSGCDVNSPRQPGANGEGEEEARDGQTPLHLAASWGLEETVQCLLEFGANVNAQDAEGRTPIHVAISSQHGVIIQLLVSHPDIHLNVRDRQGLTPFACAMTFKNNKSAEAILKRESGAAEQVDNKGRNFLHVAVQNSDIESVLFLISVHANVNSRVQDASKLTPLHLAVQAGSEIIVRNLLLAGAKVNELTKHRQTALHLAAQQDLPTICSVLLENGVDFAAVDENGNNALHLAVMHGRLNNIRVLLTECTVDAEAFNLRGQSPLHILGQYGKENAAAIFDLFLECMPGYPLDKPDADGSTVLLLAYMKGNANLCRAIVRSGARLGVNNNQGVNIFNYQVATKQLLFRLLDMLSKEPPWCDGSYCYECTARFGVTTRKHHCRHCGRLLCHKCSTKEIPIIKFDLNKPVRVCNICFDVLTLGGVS
UniProt O14727: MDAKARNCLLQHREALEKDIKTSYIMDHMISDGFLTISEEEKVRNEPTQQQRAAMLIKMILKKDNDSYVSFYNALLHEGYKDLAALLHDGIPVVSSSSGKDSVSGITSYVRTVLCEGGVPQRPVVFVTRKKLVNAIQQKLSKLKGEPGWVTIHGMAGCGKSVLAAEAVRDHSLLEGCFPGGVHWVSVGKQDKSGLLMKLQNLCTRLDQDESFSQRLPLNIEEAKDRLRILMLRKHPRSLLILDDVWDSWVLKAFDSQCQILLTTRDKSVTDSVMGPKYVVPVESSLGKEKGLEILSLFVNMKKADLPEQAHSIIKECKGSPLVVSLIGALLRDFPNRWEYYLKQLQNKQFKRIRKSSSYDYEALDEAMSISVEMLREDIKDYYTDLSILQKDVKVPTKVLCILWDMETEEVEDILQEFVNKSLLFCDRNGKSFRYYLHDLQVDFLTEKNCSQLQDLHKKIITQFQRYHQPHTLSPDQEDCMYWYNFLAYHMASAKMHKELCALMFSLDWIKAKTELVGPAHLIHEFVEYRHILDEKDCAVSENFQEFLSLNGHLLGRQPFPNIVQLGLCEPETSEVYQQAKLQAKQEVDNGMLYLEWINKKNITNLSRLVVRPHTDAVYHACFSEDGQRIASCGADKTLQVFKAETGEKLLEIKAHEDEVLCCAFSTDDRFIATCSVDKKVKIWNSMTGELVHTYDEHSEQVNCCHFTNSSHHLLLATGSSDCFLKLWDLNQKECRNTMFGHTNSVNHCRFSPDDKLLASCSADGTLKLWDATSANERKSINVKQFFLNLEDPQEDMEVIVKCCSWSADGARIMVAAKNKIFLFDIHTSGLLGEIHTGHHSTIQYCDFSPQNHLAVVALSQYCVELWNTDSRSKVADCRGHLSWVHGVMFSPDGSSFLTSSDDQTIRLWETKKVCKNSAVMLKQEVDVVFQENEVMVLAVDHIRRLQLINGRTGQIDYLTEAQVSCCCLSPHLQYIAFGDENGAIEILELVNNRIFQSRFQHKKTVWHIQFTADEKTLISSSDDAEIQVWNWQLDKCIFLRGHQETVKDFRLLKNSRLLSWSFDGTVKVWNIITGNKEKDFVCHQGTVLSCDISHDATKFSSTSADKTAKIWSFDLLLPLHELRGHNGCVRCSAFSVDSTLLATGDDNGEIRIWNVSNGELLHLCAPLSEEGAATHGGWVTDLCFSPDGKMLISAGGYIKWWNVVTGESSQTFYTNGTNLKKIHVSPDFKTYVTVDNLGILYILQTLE
UniProt P08758: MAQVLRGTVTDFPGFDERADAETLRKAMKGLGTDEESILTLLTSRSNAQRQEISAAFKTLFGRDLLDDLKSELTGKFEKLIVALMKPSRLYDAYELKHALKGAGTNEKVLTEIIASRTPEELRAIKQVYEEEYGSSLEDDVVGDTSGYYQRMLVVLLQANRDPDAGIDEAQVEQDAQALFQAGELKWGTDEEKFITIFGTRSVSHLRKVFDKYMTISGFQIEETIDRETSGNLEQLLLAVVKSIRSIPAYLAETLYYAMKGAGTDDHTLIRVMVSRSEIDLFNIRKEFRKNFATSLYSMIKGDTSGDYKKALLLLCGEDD

In order of rising “probe-labelled cysteine peptide fold change” value:
1. ANKRD10_Q9NXR5_140_SGSLECISALVANGAHVDLR (UniProt Q9NXR5)  -0.314
2. ANKRD44_Q8N8A2_921_CALLILDK (UniProt Q8N8A2)  -0.157
3. APLP2_Q06481_310_AVCSQEAMTGPCR (UniProt Q06481)  -0.149
4. ANO6_Q4KMQ2_426_CTHVVINEITQEEERIPFTAWGK (UniProt Q4KMQ2)  -0.13
5. ANO6_Q4KMQ2_261_QSEDPSCPNER (UniProt Q4KMQ2)  -0.0911
6. AP2B1_P63010_144_TAAVCVAK (UniProt P63010)  -0.0906
7. ANKHD1_Q8IWZ3_213_SLAEACSDGDVNAVRK (UniProt Q8IWZ3)  -0.0766
8. APEX1_P27695_93_EEAPDILCLQETK (UniProt P27695)  -0.052
9. AP1B1_Q10567_866_DCPLNAEAASSK (UniProt Q10567)  -0.0509
10. AP3D1_O14617_574_ASCILQLVK (UniProt O14617)  -0.039
11. AOC1_P19801_181_CLAFTDVAPR (UniProt P19801)  -0.0221
12. AP4M1_O00189_235_IGLTEEFCVGK (UniProt O00189)  -0.0152
13. ANKRD50_Q9ULJ7_442_MLAMSYTCQAK (UniProt Q9ULJ7)  -0.0145
14. APEH_P13798_30_QPALSAACLGPEVTTQYGGQYR (UniProt P13798)  -0.0105
15. ANKMY2_Q8IV38_341_MVIYCDQTCQK (UniProt Q8IV38)  -0.00689
16. AP5M1_Q9H0R1_354_NNFEFCEAHIPFYNR (UniProt Q9H0R1)  0.0151
17. ANKMY2_Q8IV38_41_VNCLDENGMTPLMHAAYK (UniProt Q8IV38)  0.0439
18. ANKFY1_Q9P2R3_742_AIDENNEPTACFLIR (UniProt Q9P2R3)  0.0474
19. ANKRD44_Q8N8A2_819_FIGNPFTPLHCAIINDHGNCASLLLGAIDSSIVSCR (UniProt Q8N8A2)  0.0606
20. APLP2_Q06481_133_CLVGEFVSDVLLVPEK (UniProt Q06481)  0.0646
21. APEX1_P27695_208_KPLVLCGDLNVAHEEIDLR (UniProt P27695)  0.0664
22. ANKRD11_Q6UB99_1712_EVLPASPRPDQSRPTGVPTPTSVLSCPSYEEVMHTPR (UniProt Q6UB99)  0.0772
23. ANKHD1_Q8IWZ3_1716_GGCNITAIQDVTGAHIDVDK (UniProt Q8IWZ3)  0.0838
24. ANKRD17_O75179_1158_DTPLSLACSGGR (UniProt O75179)  0.0848
25. APAF1_O14727_1083_DFVCHQGTVLSCDISHDATK (UniProt O14727)  0.104
26. API5_Q9BZZ5_297_LLAEMSSFCGDMEK (UniProt Q9BZZ5)  0.118
27. ANKLE2_Q86XL3_844_RLFLFGEEPSKLDQDVLAALECADVDPHQFPAVHR (UniProt Q86XL3)  0.128
28. AP3D1_O14617_1117_SIQGHHVCLLVK (UniProt O14617)  0.144
29. AP2A2_O94973_396_AVDLLYAMCDR (UniProt O94973)  0.145
30. ANKRD44_Q8N8A2_408_TCLHAAAAGGNVECIK (UniProt Q8N8A2)  0.166
31. APAF1_O14727_258_AFDSQCQILLTTR (UniProt O14727)  0.17
32. AP2A1_O95782_492_TVFEALQAPACHENMVK (UniProt O95782)  0.179
33. ANKRD17_O75179_210_LTSSVSCALDEAAAALTR (UniProt O75179)  0.198
34. ANXA5_P08758_316_ALLLLCGEDD (UniProt P08758)  0.202
35. AP5B1_Q2VPB7_420_LHLLCLLCAEEEEEEK (UniProt Q2VPB7)  0.207
36. API5_Q9BZZ5_345_LQFSYVECLLYSFHQLGR (UniProt Q9BZZ5)  0.242
37. AP2A1_O95782_941_ALQVGCLLR (UniProt O95782)  0.251
38. APAF1_O14727_675_FIATCSVDKK (UniProt O14727)  0.277
39. AP1G2_O75843_393_AMMQELQAFLESCPPDLR (UniProt O75843)  0.31
40. AP1M1_Q9BXS5_241_FHQCVR (UniProt Q9BXS5)  0.375

Same assay, conditions: 50 µM; THP-1; incubation time: 4 h

In order of rising “probe-labelled cysteine peptide fold change” value:
1. APEX1_P27695_93_EEAPDILCLQETK (UniProt P27695)  -0.254
2. ANKFY1_Q9P2R3_742_AIDENNEPTACFLIR (UniProt Q9P2R3)  -0.187
3. AP3D1_O14617_1117_SIQGHHVCLLVK (UniProt O14617)  -0.172
4. APLP2_Q06481_310_AVCSQEAMTGPCR (UniProt Q06481)  -0.154
5. ANKRD10_Q9NXR5_140_SGSLECISALVANGAHVDLR (UniProt Q9NXR5)  -0.119
6. ANKRD50_Q9ULJ7_442_MLAMSYTCQAK (UniProt Q9ULJ7)  -0.11
7. ANKRD44_Q8N8A2_819_FIGNPFTPLHCAIINDHGNCASLLLGAIDSSIVSCR (UniProt Q8N8A2)  -0.103
8. ANO6_Q4KMQ2_426_CTHVVINEITQEEERIPFTAWGK (UniProt Q4KMQ2)  -0.0867
9. ANKHD1_Q8IWZ3_213_SLAEACSDGDVNAVRK (UniProt Q8IWZ3)  -0.0775
10. ANKLE2_Q86XL3_844_RLFLFGEEPSKLDQDVLAALECADVDPHQFPAVHR (UniProt Q86XL3)  -0.047
11. ANKRD44_Q8N8A2_921_CALLILDK (UniProt Q8N8A2)  -0.0466
12. AP1G2_O75843_393_AMMQELQAFLESCPPDLR (UniProt O75843)  -0.0464
13. ANKRD44_Q8N8A2_408_TCLHAAAAGGNVECIK (UniProt Q8N8A2)  -0.0433
14. AP1B1_Q10567_866_DCPLNAEAASSK (UniProt Q10567)  -0.0352
15. AP4M1_O00189_235_IGLTEEFCVGK (UniProt O00189)  -0.0323
16. ANKMY2_Q8IV38_41_VNCLDENGMTPLMHAAYK (UniProt Q8IV38)  -0.0309
17. ANO6_Q4KMQ2_261_QSEDPSCPNER (UniProt Q4KMQ2)  -0.0255
18. APEX1_P27695_208_KPLVLCGDLNVAHEEIDLR (UniProt P27695)  -0.017
19. AP2B1_P63010_144_TAAVCVAK (UniProt P63010)  -0.016
20. AP3D1_O14617_574_ASCILQLVK (UniProt O14617)  -0.0126
21. APLP2_Q06481_133_CLVGEFVSDVLLVPEK (UniProt Q06481)  8.35e-05
22. ANKRD17_O75179_1158_DTPLSLACSGGR (UniProt O75179)  0.00766
23. API5_Q9BZZ5_345_LQFSYVECLLYSFHQLGR (UniProt Q9BZZ5)  0.0127
24. ANKMY2_Q8IV38_341_MVIYCDQTCQK (UniProt Q8IV38)  0.0152
25. AOC1_P19801_181_CLAFTDVAPR (UniProt P19801)  0.017
26. APAF1_O14727_258_AFDSQCQILLTTR (UniProt O14727)  0.0371
27. ANKHD1_Q8IWZ3_1716_GGCNITAIQDVTGAHIDVDK (UniProt Q8IWZ3)  0.0879
28. AP2A1_O95782_492_TVFEALQAPACHENMVK (UniProt O95782)  0.0904
29. AP5M1_Q9H0R1_354_NNFEFCEAHIPFYNR (UniProt Q9H0R1)  0.0972
30. ANKRD17_O75179_210_LTSSVSCALDEAAAALTR (UniProt O75179)  0.105
31. API5_Q9BZZ5_297_LLAEMSSFCGDMEK (UniProt Q9BZZ5)  0.112
32. ANKRD11_Q6UB99_1712_EVLPASPRPDQSRPTGVPTPTSVLSCPSYEEVMHTPR (UniProt Q6UB99)  0.125
33. APAF1_O14727_1083_DFVCHQGTVLSCDISHDATK (UniProt O14727)  0.153
34. AP5B1_Q2VPB7_420_LHLLCLLCAEEEEEEK (UniProt Q2VPB7)  0.17
35. ANXA5_P08758_316_ALLLLCGEDD (UniProt P08758)  0.182
36. AP2A2_O94973_396_AVDLLYAMCDR (UniProt O94973)  0.253
37. APAF1_O14727_675_FIATCSVDKK (UniProt O14727)  0.264
38. AP2A1_O95782_941_ALQVGCLLR (UniProt O95782)  0.29
39. APEH_P13798_30_QPALSAACLGPEVTTQYGGQYR (UniProt P13798)  0.35
40. AP1M1_Q9BXS5_241_FHQCVR (UniProt Q9BXS5)  0.482

From the supplement of paper PMC12067093, “Discovery and optimisation of a covalent ligand for TRIM25 and its application to targeted protein ubiquitination” (Chemical Science, 2025)
